The target of this data set is T1, MR DBD (Homo sapiens) (UniProt P08235).
T1 sequence (looked up): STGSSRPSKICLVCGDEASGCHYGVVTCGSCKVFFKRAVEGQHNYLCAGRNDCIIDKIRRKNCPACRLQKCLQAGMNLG
Description: fluorescence polarization. The following applies: FP: 10 nM 6-FAM dsDNA, 100 mM NaCl, 20 mM Tris-HCl pH 7.4, 5% glycerol, temperature not stated, recombinant protein, residues 593-671, protein details: N-terminal 6xHis with TEV site.

No signal at the amounts used counts as a negative. At least one verdict was read from the data and is not stated in words by the source. Protein sequences can lack the tags named with them.

Regarding “GAGTGGGAATTTCCACTCA (double strand) [CCL2 kBRE]”, the binding result (label: FAM (position not given)) is recorded as “no binding”. Take “AATCGTGGAATTTCCTCTG (double strand) [IL8 kBRE]”: the binding result (label: 5'-FAM on strand 1) was “no binding”.

“CCCTGGGAATTTCCTGATA (double strand) [PLAU kBRE]”: the binding result (label: 5'-FAM on strand 1) was “no binding”.
